# In the supplement of paper PMC4604168 (melanoma cell lines):
# The other results are listed elsewhere or left out. Single values are uncertain, as repeats are few or missing.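 Cells were imaged in 1,536-well plates, and nuclei stained with an antibody against cleaved PARP were counted against all DNA-stained nuclei to give the apoptosis fraction. Screening doses were chosen to leave most cells alive, and resting and induced cleaved-PARP levels differ strongly between cell lines.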
# System: WM3526
# Assay: cleaved PARP positive nuclei fraction relative to DMSO control; melanoma cells; higher = more apoptosis
# Conditions: library dose: low library concentration; 72 h
row,SMILES,cleaved PARP positive nuclei fraction [%]
1,"C=CCNC1=C2C[C@@H](C)C[C@H](OC)[C@H](O)[C@@H](C)/C=C(\C)[C@H](OC(N)=O)[C@@H](OC)/C=C\C=C(/C)C(=O)NC(=CC1=O)C2=O [Tanespimycin] + Cn1c(Nc2ccc(C(F)(F)F)cc2)nc2cc(Oc3ccnc(-c4ncc(C(F)(F)F)[nH]4)c3)ccc21 [CHIR265] (first compound 0.002 µM, partner dose 0.08 µM)",61.4
2,"Clc1ccc(Nc2nnc(Cc3ccncc3)c3ccccc23)cc1 [vatalanib] + CC(C)(C)c1cnc(CSc2cnc(NC(=O)C3CCNCC3)s2)o1 [SNS-032] (first compound 2 µM, partner dose 0.01 µM)",62.2
3,"C[C@]1(c2nc3c(C(N)=O)cccc3[nH]2)CCCN1 [Veliparib] + CC(C)(C)c1cnc(CSc2cnc(NC(=O)C3CCNCC3)s2)o1 [SNS-032] (first compound 1.4 µM, partner dose 0.01 µM)",27.4
4,"C#Cc1cccc(Nc2ncnc3cc(OCCOC)c(OCCOC)cc23)c1 [erlotinib] + CN(C)S(=O)(=O)c1ccc2c(c1)/C(=C/c1cc3c([nH]1)CCCC3)C(=O)N2 [SU6656] (first compound 0.8 µM, partner dose 0.4 µM)",82.2
5,"Cc1ccc(NC(=O)c2cccc(N(C)C)c2)cc1NC(=O)c1ccc(O)cc1 + Oc1cc(-c2nc(-c3ccccc3)[nH]c2-c2ccncc2)ccc1Cl [L779450] (first compound 2 µM, partner dose 0.2 µM)",92.8
6,"O=C(CCCCCCC(=O)Nc1ccccc1)NO [vorinostat] + CCc1ccc(CCOc2ccc(CC3SC(=O)NC3=O)cc2)nc1 [pioglitazone] (first compound 0.08 µM, partner dose 2 µM)",70.3
7,"C#Cc1cccc(Nc2ncnc3cc(OCCOC)c(OCCOC)cc23)c1 [erlotinib] + O=C(Nc1ccccc1)c1cc([N+](=O)[O-])ccc1Cl [GW9662] (first compound 0.8 µM, partner dose 2 µM)",108
8,"Cc1cc(N2CCOCC2)cc2[nH]c(-c3c(NC[C@@H](O)c4cccc(Cl)c4)cc[nH]c3=O)nc12 + O=C1NC(=O)/C(=C/c2ccc(-c3ccc(F)cc3O)o2)S1 [AS252424] (first compound 0.2 µM, partner dose 1 µM)",205
9,"C#Cc1cccc(Nc2ncnc3cc(OCCOC)c(OCCOC)cc23)c1 [erlotinib] + CC1(C)NC(=O)N(c2ccc([N+](=O)[O-])c(C(F)(F)F)c2)C1=O [nilutamide] (first compound 0.8 µM, partner dose 1 µM)",59.6
10,"CO[C@@H]1[C@H](N(C)C(=O)c2ccccc2)C[C@H]2O[C@]1(C)n1c3ccccc3c3c4c(c5c6ccccc6n2c5c31)C(=O)NC4 [Midostaurin] + CCCCCCCCCCCC1=C(O)C(=O)C=C(O)C1=O [Embelin] (first compound 0.08 µM, partner dose 1.2 µM)",62.1
11,"NC(=O)Nc1cc(-c2cccc(F)c2)sc1C(=O)N[C@H]1CCCNC1 + CN(C)S(=O)(=O)c1ccc2c(c1)/C(=C/c1cc3c([nH]1)CCCC3)C(=O)N2 [SU6656] (first compound 0.02 µM, partner dose 0.4 µM)",90.2
12,"Clc1ccc(Nc2nnc(Cc3ccncc3)c3ccccc23)cc1 [vatalanib] + Cc1cc(N2CCOCC2)cc2[nH]c(-c3c(NC[C@@H](O)c4cccc(Cl)c4)cc[nH]c3=O)nc12 [BMS536924] (first compound 2 µM, partner dose 0.2 µM)",60
13,"Cc1cc(N2CCOCC2)cc2[nH]c(-c3c(NC[C@@H](O)c4cccc(Cl)c4)cc[nH]c3=O)nc12 + OCCn1cc(-c2cnc3nnn(Cc4ccc5ncccc5c4)c3n2)cn1 [PF04217903] (first compound 0.2 µM, partner dose 1 µM)",129
14,"COc1cc(Nc2ncc(F)c(Nc3ccc4c(n3)NC(=O)C(C)(C)O4)n2)cc(OC)c1OC [Tamatinib] + Oc1nc(-c2ccc(C(F)(F)F)cc2)nc2c1CSCC2 [XAV939] (first compound 0.4 µM, partner dose 2 µM)",68.2
15,"Clc1ccc(Nc2nnc(Cc3ccncc3)c3ccccc23)cc1 [vatalanib] + O=C(Nc1cccc(Cl)c1)Nc1ncc(CCNc2ncnc3ccsc23)s1 [SNS314] (first compound 2 µM, partner dose 0.0008 µM)",67.3
16,"NC(=O)Nc1cc(-c2cccc(F)c2)sc1C(=O)N[C@H]1CCCNC1 + COc1ccc(-c2ccc3c(N4CCOCC4)nc(N4C[C@@H](C)O[C@@H](C)C4)nc3n2)cc1CO [KU0063794] (first compound 0.02 µM, partner dose 0.02 µM)",86.8

# Retrieved one by one from above:
row,SMILES,cleaved PARP positive nuclei fraction [%]
6,"O=C(CCCCCCC(=O)Nc1ccccc1)NO [vorinostat] + CCc1ccc(CCOc2ccc(CC3SC(=O)NC3=O)cc2)nc1 [pioglitazone] (first compound 0.08 µM, partner dose 2 µM)",70.3
11,"NC(=O)Nc1cc(-c2cccc(F)c2)sc1C(=O)N[C@H]1CCCNC1 + CN(C)S(=O)(=O)c1ccc2c(c1)/C(=C/c1cc3c([nH]1)CCCC3)C(=O)N2 [SU6656] (first compound 0.02 µM, partner dose 0.4 µM)",90.2

# (further entries)

row,SMILES,cleaved PARP positive nuclei fraction [%]
1,"C[C@@H]1CCN(C(=O)CC#N)C[C@@H]1N(C)c1ncnc2[nH]ccc12 + COc1ccc(-c2ccc3c(N4CCOCC4)nc(N4C[C@@H](C)O[C@@H](C)C4)nc3n2)cc1CO [KU0063794] (first compound 1 µM, partner dose 0.02 µM)",73.2
2,"Clc1ccc(Nc2nnc(Cc3ccncc3)c3ccccc23)cc1 [vatalanib] + O=C1NC(=O)/C(=C/c2ccc(-c3ccc(F)cc3O)o2)S1 [AS252424] (first compound 2 µM, partner dose 1 µM)",70.9
3,"C[C@]1(c2nc3c(C(N)=O)cccc3[nH]2)CCCN1 [Veliparib] + COc1cc2ncnc(Nc3ccc(Oc4ccccc4)cc3)c2cc1OC [SrcI1] (first compound 1.4 µM, partner dose 2 µM)",88.5
4,"Cn1nnc2c(C(N)=O)ncn2c1=O [temozolomide] + Cc1ccc(NC(=O)c2cccc(N(C)C)c2)cc1NC(=O)c1ccc(O)cc1 [ZM336372] (first compound 2 µM, partner dose 2 µM)",106
5,"CC1(C)NC(=O)N(c2ccc([N+](=O)[O-])c(C(F)(F)F)c2)C1=O [nilutamide] + O=C(O)c1ccc(-c2c[nH]c3ncc(-c4ccccc4)cc23)cc1C1CCCC1 [GSK650394] (first compound 1 µM, partner dose 0.16 µM)",33.1
6,"NC(=O)Nc1cc(-c2cccc(F)c2)sc1C(=O)N[C@H]1CCCNC1 + OCCn1cc(-c2cnc3nnn(Cc4ccc5ncccc5c4)c3n2)cn1 [PF04217903] (first compound 0.02 µM, partner dose 1 µM)",74.7
7,"C[C@@H]1CCN(C(=O)CC#N)C[C@@H]1N(C)c1ncnc2[nH]ccc12 + COC(=O)c1sccc1S(=O)(=O)Nc1ccc(Nc2ccccc2)cc1OC [GSK0660] (first compound 1 µM, partner dose 1 µM)",72.7
8,"CC(=O)c1c(C)c2cnc(Nc3ccc(N4CCNCC4)cn3)nc2n(C2CCCC2)c1=O [palbociclib] + CO[C@@H]1[C@H](N(C)C(=O)c2ccccc2)C[C@H]2O[C@]1(C)n1c3ccccc3c3c4c(c5c6ccccc6n2c5c31)C(=O)NC4 [Midostaurin] (first compound 0.04 µM, partner dose 0.08 µM)",77.6
9,"Cc1nc(Nc2ncc(C(=O)Nc3c(C)cccc3Cl)s2)cc(N2CCN(CCO)CC2)n1 [dasatanib] + COc1cc2c(Oc3ccc4[nH]c(C)cc4c3F)ncnc2cc1OCCCN1CCCC1 [cediranib] (first compound 0.004 µM, partner dose 0.4 µM)",143
10,"OCc1c[nH]c2ccccc12 [Indole-3-carbinol] + CO[C@@H]1[C@H](N(C)C(=O)c2ccccc2)C[C@H]2O[C@]1(C)n1c3ccccc3c3c4c(c5c6ccccc6n2c5c31)C(=O)NC4 [Midostaurin] (first compound 0.8 µM, partner dose 0.08 µM)",181
11,"C=CCNC1=C2C[C@@H](C)C[C@H](OC)[C@H](O)[C@@H](C)/C=C(\C)[C@H](OC(N)=O)[C@@H](OC)/C=C\C=C(/C)C(=O)NC(=CC1=O)C2=O [Tanespimycin] + Cc1cc([N+](=O)[O-])ccc1NS(=O)(=O)c1cc(Cl)ccc1Cl [FH535] (first compound 0.002 µM, partner dose 1 µM)",215
12,"Cc1cc(N2CCOCC2)cc2[nH]c(-c3c(NC[C@@H](O)c4cccc(Cl)c4)cc[nH]c3=O)nc12 + C[C@@H]1CCN(C(=O)CC#N)C[C@@H]1N(C)c1ncnc2[nH]ccc12 [CP690550] (first compound 0.2 µM, partner dose 1 µM)",23.3
13,"O=C(CCCCCCC(=O)Nc1ccccc1)NO [vorinostat] + C[C@@H]1CCN(C(=O)CC#N)C[C@@H]1N(C)c1ncnc2[nH]ccc12 [CP690550] (first compound 0.08 µM, partner dose 1 µM)",327
14,"Cc1cc(N2CCOCC2)cc2[nH]c(-c3c(NC[C@@H](O)c4cccc(Cl)c4)cc[nH]c3=O)nc12 + CCc1ccc(CCOc2ccc(CC3SC(=O)NC3=O)cc2)nc1 [pioglitazone] (first compound 0.2 µM, partner dose 2 µM)",58.3
15,"O=C(CCCCCCC(=O)Nc1ccccc1)NO [vorinostat] + OCCn1cc(-c2cnc3nnn(Cc4ccc5ncccc5c4)c3n2)cn1 [PF04217903] (first compound 0.08 µM, partner dose 1 µM)",65.7
16,"Cc1cc(N2CCOCC2)cc2[nH]c(-c3c(NC[C@@H](O)c4cccc(Cl)c4)cc[nH]c3=O)nc12 + Cc1cc([N+](=O)[O-])ccc1NS(=O)(=O)c1cc(Cl)ccc1Cl [FH535] (first compound 0.2 µM, partner dose 1 µM)",63.5
